Laboratory results reported in US20220204611A1.
Substitutions are numbered along the chain they refer to. These are yes or no findings as the source states them, for the method shown. Some binding calls cover weakened binding; strength is not graded here.

B1: V3 (Fab, V domains shown)
VH: EVQLVQSGAEVKKPGESLKISCKGSGYSFASYWIAWVRQMPGKGLEWMGIIYPGDSDTRYSPSFQDQVTISADKSISTAYLQWSSLKASDTAMYFCARGRTFYYDSSDYFDYWGQGTLVTVSS
VL: DIQMTQSPSSVSASVGDRVTITCRASQGISSWLAWYQQKPGKAPKLLIYAASSRQNGVPSRFSGSGSGTDFTLTISSLQPEDFATYFCQQADRFPRTFGQGTKLEIK
B2: V24 (Fab, V domains shown)
VH: B1 VH with A30T, T58V, D66G, G99S
VL: B1 VL with R54L, N56K, R93S, R96H
B3: V27 (Fab, V domains shown)
VH: B1 VH with A30T, S61A, D66G, A97V, G99S
VL: B1 VL with R54L, N56R, R93S
B4: V40 (Fab, V domains shown)
VH: B1 VH with A30G, T58V, D66G, G99Q, F110S
VL: B1 VL with R54L, N56L
B5: V48 (Fab, V domains shown)
VH: B1 VH with A30G, T58V, D66G, G99M
VL: B1 VL with R54L, N56T, R93S, F94L
B6: V49 (Fab, V domains shown)
VH: B1 VH with A30N, I50T, Y60L, D66G, G99S
VL: B1 VL with R93S, F94Y
B7: V52 (Fab, V domains shown)
VH: B1 VH with A30E, D66G
VL: B1 VL with R54L, N56R
B8: V60 (Fab, V domains shown)
VH: B1 VH with S28H, A30T, T58V, D66G, G99Q, F110S
VL: B1 VL with R54L, N56R, Q89G, R93S
B9: V73 (Fab, V domains shown)
VH: B1 VH with A30G, S63G, D66G
VL: B1 VL with R93S, F94Y
B10: V76 (Fab, V domains shown)
VH: B1 VH with A30G, S63E, D66G, G99Q, F110S
VL: B1 VL with R54L, N56K, T69R, R93S
B11: V84 (Fab, V domains shown)
VH: B1 VH with S28G, A30T, D66G, G99Q, F110S
VL: B1 VL with A50G, R54L, R93S
B12: V90 (Fab, V domains shown)
VH: B1 VH with A30T, Y32E, D66G, G99Q
VL: B1 VL with S31R, R54L, R93S

Each binder was assayed against T1, human TREM2 (human) (UniProt Q9NZC2) (assay: yeast-displayed Fab FACS).
T1 sequence: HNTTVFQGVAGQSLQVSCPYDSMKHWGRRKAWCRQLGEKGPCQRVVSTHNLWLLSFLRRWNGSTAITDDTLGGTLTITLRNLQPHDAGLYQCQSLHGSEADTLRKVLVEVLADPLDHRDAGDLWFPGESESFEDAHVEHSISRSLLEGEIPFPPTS

Row | Binder | binding
1 | B1 | binds
2 | B2 | binds
3 | B3 | binds
4 | B4 | binds
5 | B5 | binds
6 | B6 | binds
7 | B7 | binds
8 | B8 | binds
9 | B9 | binds
10 | B10 | binds
11 | B11 | binds
12 | B12 | binds
